We go through 26 compounds from patent US12491217B2, “Compositions and methods for promoting healthy neural development in an unborn baby” (The Regents of the University of California, priority 2019, dated 2025).

This series is described as follows: Metabolomics of fetal brain at E14.5. It is filed as in vivo, C57Bl/6J mice. The settings on record: metabolite level in E14.5 fetal brain; for fold of change ABX/SPF: ANOVA contrast ABX/SPF; for fold of change GF/ABX: ANOVA contrast GF/ABX; for fold of change GF/SPF: ANOVA contrast GF/SPF; for fold of change GF/Sp: ANOVA contrast GF/Sp; for fold of change Sp/ABX: ANOVA contrast Sp/ABX; for fold of change Sp/SPF: ANOVA contrast Sp/SPF.

Structures are written as SMILES.

`O=C1CCN([C@@H]2O[C@H](CO)[C@@H](O)[C@H]2O)C(=O)N1` [compound 3550]: the “fold of change ABX/SPF” value is recorded as 0.73, the “fold of change GF/ABX” value worked out at 0.98, the “fold of change GF/SPF” value stood at 0.71 and the “fold of change GF/Sp” value came out at 0.78. Further, the “fold of change Sp/ABX” value is 1.26 and the “fold of change Sp/SPF” value came out at 0.91.

As for `Cc1cn([C@@H]2O[C@H](CO)[C@@H](O)[C@H]2O)c(=O)[nH]c1=O` [compound 3552], the “fold of change ABX/SPF” value stood at 0.91, the “fold of change GF/ABX” value came to 0.80, the “fold of change GF/SPF” value was determined as 0.73 and the “fold of change GF/Sp” value amounted to 0.64. The “fold of change Sp/ABX” value is 1.25 and the “fold of change Sp/SPF” value was found to be 1.14.

For `O=c1ccn([C@H]2C[C@H](O)[C@@H](CO)O2)c(=O)[nH]1` [compound 3563], the “fold of change ABX/SPF” value was determined as 0.78, the “fold of change GF/ABX” value worked out at 1.11, the “fold of change GF/SPF” value is 0.86 and the “fold of change GF/Sp” value amounted to 0.81. The “fold of change Sp/ABX” value is listed as 1.37 and the “fold of change Sp/SPF” value is 1.07.

Take `CC(CNC(N)=O)C(=O)O` (stereo not drawn) [compound 3565]: the “fold of change ABX/SPF” value is 0.63, the “fold of change GF/ABX” value is 1.20, the “fold of change GF/SPF” value worked out at 0.76 and the “fold of change GF/Sp” value was determined as 1.02. Moreover, the “fold of change Sp/ABX” value is 1.18 and the “fold of change Sp/SPF” value is reported as 0.74.

Turning to `NC(=O)NCCC(=O)O` [compound 3566], the “fold of change ABX/SPF” value came out at 0.64, the “fold of change GF/ABX” value is 0.98, the “fold of change GF/SPF” value is 0.62 and the “fold of change GF/Sp” value was determined as 0.79. The “fold of change Sp/ABX” value stood at 1.23 and the “fold of change Sp/SPF” value is given as 0.79.

In the case of `NCCC(=O)O` [compound 3567], the “fold of change ABX/SPF” value is 0.74, the “fold of change GF/ABX” value stood at 1.02, the “fold of change GF/SPF” value was 0.75 and the “fold of change GF/Sp” value was 0.90. The “fold of change Sp/ABX” value was found to be 1.13 and the “fold of change Sp/SPF” value stood at 0.83.

Turning to `CC(=O)NCCC(=O)O` [compound 3568], the “fold of change ABX/SPF” value was 0.79, the “fold of change GF/ABX” value is listed as 1.31, the “fold of change GF/SPF” value is 1.03 and the “fold of change GF/Sp” value was found to be 1.23. The “fold of change Sp/ABX” value is listed as 1.06 and the “fold of change Sp/SPF” value is reported as 0.84.

Turning to `Nc1ccn([C@@H]2O[C@H](COP(=O)(O)OP(=O)(O)O)[C@@H](O)[C@H]2O)c(=O)n1` [compound 3572], the “fold of change ABX/SPF” value was 0.81, the “fold of change GF/ABX” value stood at 0.81, the “fold of change GF/SPF” value is recorded as 0.65 and the “fold of change GF/Sp” value is reported as 1.12. The “fold of change Sp/ABX” value is 0.72 and the “fold of change Sp/SPF” value was 0.58.

For the compound `Nc1ccn(C2OC(CO)C3OP(=O)(O)OC32)c(=O)n1` (stereo not drawn) [compound 3576], the “fold of change ABX/SPF” value was determined as 0.65, the “fold of change GF/ABX” value came out at 0.97, the “fold of change GF/SPF” value is listed as 0.63 and the “fold of change GF/Sp” value turned out to be 0.98. Besides, the “fold of change Sp/ABX” value stood at 0.99 and the “fold of change Sp/SPF” value came out at 0.64.

With `Nc1ccn([C@@H]2O[C@H](CO)[C@@H](O)[C@H]2O)c(=O)n1` [compound 3577], the “fold of change ABX/SPF” value came out at 0.84, the “fold of change GF/ABX” value worked out at 0.87, the “fold of change GF/SPF” value is listed as 0.73 and the “fold of change GF/Sp” value came to 0.95. Besides, the “fold of change Sp/ABX” value came out at 0.92 and the “fold of change Sp/SPF” value came to 0.77.

Turning to `Nc1cc[nH]c(=O)n1` [compound 3578], the “fold of change ABX/SPF” value was 0.90, the “fold of change GF/ABX” value is on record as 1.12, the “fold of change GF/SPF” value is 1.01 and the “fold of change GF/Sp” value was determined as 1.17. In addition, the “fold of change Sp/ABX” value amounted to 0.96 and the “fold of change Sp/SPF” value is 0.86.

Turning to `Cn1c(=N)ccn([C@@H]2O[C@H](CO)[C@@H](O)[C@H]2O)c1=O` [compound 3579], the “fold of change ABX/SPF” value was 0.50, the “fold of change GF/ABX” value worked out at 0.90, the “fold of change GF/SPF” value is 0.45 and the “fold of change GF/Sp” value is 0.84. For the same compound, the “fold of change Sp/ABX” value worked out at 1.07 and the “fold of change Sp/SPF” value is on record as 0.54.

On to `Cc1cn([C@@H]2O[C@H](CO)[C@@H](O)[C@H]2O)c(=O)nc1N` [compound 3580], for which the “fold of change ABX/SPF” value is 0.72, the “fold of change GF/ABX” value was 1.04, the “fold of change GF/SPF” value worked out at 0.75 and the “fold of change GF/Sp” value came out at 0.92. Further, the “fold of change Sp/ABX” value was found to be 1.14 and the “fold of change Sp/SPF” value turned out to be 0.82.

Regarding `Nc1ccn([C@H]2C[C@H](O)[C@@H](COP(=O)(O)O)O2)c(=O)n1` [compound 3585], the “fold of change ABX/SPF” value is 0.93, the “fold of change GF/ABX” value was found to be 0.95, the “fold of change GF/SPF” value is 0.89 and the “fold of change GF/Sp” value worked out at 1.17. Also, the “fold of change Sp/ABX” value is recorded as 0.81 and the “fold of change Sp/SPF” value is reported as 0.76.

Take `Nc1ccn([C@H]2C[C@H](O)[C@@H](CO)O2)c(=O)n1` [compound 3587]: the “fold of change ABX/SPF” value is 0.68, the “fold of change GF/ABX” value worked out at 0.80, the “fold of change GF/SPF” value is recorded as 0.54 and the “fold of change GF/Sp” value stood at 0.93. In addition, the “fold of change Sp/ABX” value is 0.86 and the “fold of change Sp/SPF” value was found to be 0.59.

As for `CO[C@@H]1[C@H](O)[C@@H](CO)O[C@H]1n1ccc(N)nc1=O` [compound 3588], the “fold of change ABX/SPF” value came out at 0.73, the “fold of change GF/ABX” value was 0.98, the “fold of change GF/SPF” value is 0.72 and the “fold of change GF/Sp” value was 0.89. In addition, the “fold of change Sp/ABX” value is given as 1.10 and the “fold of change Sp/SPF” value amounted to 0.80.

`Cc1cn([C@H]2C[C@H](O)[C@@H](CO)O2)c(=O)nc1N` [compound 3589]: the “fold of change ABX/SPF” value came out at 0.35, the “fold of change GF/ABX” value amounted to 1.04, the “fold of change GF/SPF” value is 0.36 and the “fold of change GF/Sp” value turned out to be 0.79. The “fold of change Sp/ABX” value is listed as 1.31 and the “fold of change Sp/SPF” value is 0.46.

Take `Cc1c[nH]c(=O)[nH]c1=O` [compound 3599]: the “fold of change ABX/SPF” value stood at 0.81, the “fold of change GF/ABX” value turned out to be 1.18, the “fold of change GF/SPF” value is given as 0.96 and the “fold of change GF/Sp” value stood at 0.88. For the same compound, the “fold of change Sp/ABX” value amounted to 1.35 and the “fold of change Sp/SPF” value worked out at 1.09.

On to `CC(CN)C(=O)O` (stereo not drawn) [compound 3602], for which the “fold of change ABX/SPF” value came to 0.91, the “fold of change GF/ABX” value came out at 0.87, the “fold of change GF/SPF” value amounted to 0.80 and the “fold of change GF/Sp” value is listed as 1.18. The “fold of change Sp/ABX” value is listed as 0.74 and the “fold of change Sp/SPF” value is reported as 0.68.

Turning to `COP(=O)(O)O` [compound 3603], the “fold of change ABX/SPF” value came to 0.74, the “fold of change GF/ABX” value came to 1.02, the “fold of change GF/SPF” value is given as 0.75 and the “fold of change GF/Sp” value turned out to be 1.12. For the same compound, the “fold of change Sp/ABX” value was found to be 0.91 and the “fold of change Sp/SPF” value is 0.67.

In the case of `Nc1ncnc2c1ncn2[C@@H]1O[C@H](CO)[C@@H](OP(=O)(O)OC[C@H]2O[C@@H](n3ccc(=O)[nH]c3=O)[C@H](O)[C@@H]2O)[C@H]1O` [compound 3607], the “fold of change ABX/SPF” value is 1.11, the “fold of change GF/ABX” value is 0.40, the “fold of change GF/SPF” value came out at 0.44 and the “fold of change GF/Sp” value was 0.90. The “fold of change Sp/ABX” value is given as 0.44 and the “fold of change Sp/SPF” value worked out at 0.49.

For `Nc1ncnc2c1ncn2C1OC(COP(=O)(O)OC2C(CO)OC(n3cnc4c(N)ncnc43)C2O)C(O)C1O` (stereo not drawn) [compound 3608], the “fold of change ABX/SPF” value came out at 1.00, the “fold of change GF/ABX” value was 0.61, the “fold of change GF/SPF” value is 0.61 and the “fold of change GF/Sp” value worked out at 1.08. Besides, the “fold of change Sp/ABX” value was determined as 0.56 and the “fold of change Sp/SPF” value is given as 0.56.

As for `NC(=O)c1ccc[n+]([C@@H]2O[C@H](CO)[C@@H](O)[C@H]2O)c1` [compound 3627], the “fold of change ABX/SPF” value is 0.70, the “fold of change GF/ABX” value is reported as 1.03, the “fold of change GF/SPF” value was 0.72 and the “fold of change GF/Sp” value came to 0.82. Besides, the “fold of change Sp/ABX” value came to 1.26 and the “fold of change Sp/SPF” value stood at 0.88.

With `NC(=O)c1ccc[n+]([C@@H]2O[C@H](COP(=O)([O-])OP(=O)(O)OC[C@H]3O[C@@H](n4cnc5c(N)ncnc54)[C@H](O)[C@@H]3O)[C@@H](O)[C@H]2O)c1` [compound 3628], the “fold of change ABX/SPF” value came to 0.85, the “fold of change GF/ABX” value is listed as 1.04, the “fold of change GF/SPF” value amounted to 0.88 and the “fold of change GF/Sp” value was found to be 1.04. For the same compound, the “fold of change Sp/ABX” value stood at 1.00 and the “fold of change Sp/SPF” value amounted to 0.85.

For `C[n+]1cccc(C(N)=O)c1` [compound 3636], the “fold of change ABX/SPF” value was found to be 1.35, the “fold of change GF/ABX” value was found to be 1.04, the “fold of change GF/SPF” value was found to be 1.41 and the “fold of change GF/Sp” value is listed as 0.89. Besides, the “fold of change Sp/ABX” value came to 1.17 and the “fold of change Sp/SPF” value worked out at 1.58.

Consider `C[n+]1cccc(C(=O)[O-])c1` [compound 3641], for which the “fold of change ABX/SPF” value is reported as 0.58, the “fold of change GF/ABX” value stood at 0.95, the “fold of change GF/SPF” value is reported as 0.55 and the “fold of change GF/Sp” value turned out to be 0.61. In addition, the “fold of change Sp/ABX” value turned out to be 1.55 and the “fold of change Sp/SPF” value was found to be 0.90.
